According to PubChem BioAssay AID2685 (National Center for Advancing Translational Sciences (NCATS), 2010):
Some of the results follow. Further columns of the screen follow, without active or inactive calls. Compounds called inactive in the main read-out are mostly missing here. Words in brackets tell the shape of the fitted curve; partial curves, single points and poor fits give uncertain potencies.

Assay: qHTS Assay for Lipid Storage Modulators in Drosophila S3 Cells;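 on cell number change: cells counted by Cell Tracker Red CMTPX staining in the red channel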
Settings: BODIPY lipid droplet fluorescence, 18-24 h; for cell number change: measured here: cell count max response, cells fed with added oleic acid
Outline: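 Drosophila S3 cells got compounds at several concentrations plus oleic acid (400 uM solution). Laser-scanning cytometry with 488 nm excitation read lipid droplets at 500-530 nm and cells at 575-640 nm. Percent activity was relative to 20 uM Triacsin C.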

[1] = measured here: lipid fluorescence (Fed channel) AC50, cells fed with added oleic acid
[2] = measured here: cell number channel AC50, cells fed with added oleic acid

Structure (SMILES)	cell number change	AC50 [1]	AC50 [2]
O=C(c1ccco1)N1CCN(S(=O)(=O)c2ccc(S(=O)(=O)NC3CCCCC3)cc2)CC1	-13.4%	0.00461 µM [falling, full curve, poor fit]	
Cc1cc(OCCN2CCOCC2)ccc1C(C)C	15.2%	0.146 µM [rising, full curve, poor fit]	
COc1ccc(-c2nn(CCC(=O)O)cc2CCC(=O)O)cc1	-21.7%	1.16 µM [falling, full curve]	
O=C(NCc1ccccc1Cl)c1cc2c(s1)CS(=O)(=O)C2		0.366 µM [rising, full curve, poor fit]	
COc1ccc(-c2nc(CSCC(=O)NC3CCN(Cc4ccccc4)CC3)c(C)o2)cc1OC	21.6%	6.51 µM [rising, single point]	0.116 µM [rising, full curve, poor fit]
COc1ccc(C2=NN(C(=O)c3ccccc3)C(c3ccc(OC)c(OC)c3)C2)c(O)c1 (centres undefined)	-20.8%	29.1 µM [falling, single point]	
CS(=O)(=O)N(CC(=O)N1CCCC1)c1ccc(Cl)c(Cl)c1	36.2%		9.2 µM [rising, partial curve, poor fit]
N=c1c2c(-c3ccccc3)c(-c3ccccc3)n(Cc3ccco3)c2ncn1Cc1ccccc1	-4.85%	6.51 µM [rising, single point]	0.13 µM [rising, full curve, poor fit]
Cc1ccc(-c2nn(C)c(=O)c3ccccc23)cc1CNC(=O)NC1CCCCC1	25.8%	0.58 µM [rising, full curve]	
O=C(c1ccc2nc(Cc3cccc(Cl)c3)oc2c1)N1CCOCC1	5.49%	6.51 µM [rising, single point]	0.82 µM [rising, full curve, poor fit]
Cc1ccc(CN2CCSc3ccc(C(=O)NCCCN4CCOCC4)cc32)cc1	-5.9%	6.51 µM [rising, single point]	
Cc1cc(C)n(C(=O)CCC(=O)NCc2ccccc2)n1	-31.7%	0.206 µM [falling, full curve, poor fit]	5.17 µM [falling, partial curve, poor fit]
Cc1ccc(CNC(=O)c2cncc(Br)c2)cc1	-11.3%		
Cc1c(OCC(=O)NCc2ccccn2)ccc2c(-c3ccccc3)cc(=O)oc12	5.18%	29.1 µM [falling, single point]	
Cc1cc(C(=O)N[C@H](c2ccccc2)[C@@]2(C)C[C@@H]2[C@@H](C)C(=O)Nc2ccc3ccccc3c2)n(C)n1	1.72%	32.6 µM [falling, single point]	
Cn1cnnc1SCC(=O)Nc1ccccc1C(=O)NC1CC1		0.82 µM [rising, full curve]	1.16 µM [rising, full curve, poor fit]
Cc1onc(CO)c1C(=O)Nc1nccs1	22.5%		0.00517 µM [rising, full curve, poor fit]
Cc1ccc(C(=O)NC(=S)Nc2ccc(NC(=O)c3cccc(Cl)c3)cc2)cc1	-1.36%	29.1 µM [falling, single point]	
CSc1ccccc1C(=O)Nc1ccc(C)c(C)c1	46%		3.26 µM [rising, full curve, poor fit]
COc1ccccc1CNC(=O)Cc1ccc(C)cc1	-17.6%	0.517 µM [rising, single point]	

Structure (SMILES)	cell number change	AC50 [1]	AC50 [2]
Cc1nc(-c2cccc(S(=O)(=O)N3CC(C)OC(C)C3)c2)cs1 (centres undefined)	10.5%	5.8 µM [falling, single point]	
CCN(CC(=O)NC(=O)NCc1ccccc1)Cc1nc2ccccc2c(=O)[nH]1	-7.29%	0.103 µM [rising, full curve, poor fit]	0.461 µM [rising, partial curve, poor fit]
Cc1ccc(NC(=O)C2CCCN2S(=O)(=O)c2ccc3c(c2)n(C)c(=O)c(=O)n3C)c(C)c1 (centres undefined)	23%	0.58 µM [rising, partial curve, poor fit]	
CC1=C(C(=O)NCc2ccccc2)C(c2cccs2)NC(=S)N1 (centres undefined)	-6.39%		
Cc1ccc(CNC(=O)CCC(=O)N2CC(C)Oc3ccc(Cl)cc32)cc1 (centres undefined)	-15.3%	16.4 µM [falling, single point]	
Cc1ccc(OCC(=O)NS(=O)(=O)c2ccc(Cl)cc2)cc1	6.16%		
COc1ccc(-c2cc(OC)c3ccccc3n2)cc1	3.73%	20.6 µM [rising, single point]	
O=[N+]([O-])c1cccc(S(=O)(=O)Nc2ccc(Cc3ccncc3)cc2)c1	9.03%	0.092 µM [rising, single point]	
Cc1ccc(NC(=O)C2CCCN2C(=O)Oc2ccccc2)cc1C (centres undefined)	67.1%	0.82 µM [rising, single point]	9.2 µM [rising, partial curve]
Cc1cccc(N2C(=O)c3cccc(Oc4ccc(Cl)cc4)c3C2=O)c1	-5.97%	5.8 µM [rising, partial curve]	
CCC(C)SCC(=O)Nc1ccc(S(=O)(=O)N2CCOCC2)cc1OC (centres undefined)	-18.6%	2.06 µM [rising, single point]	
CN(C)c1ccc(/C=C2\N=C(C(C)(C)C)OC2=O)cc1	9.25%	4.11 µM [falling, single point]	
CCOc1cccc(NC(=O)Cc2cccs2)c1	2.58%	0.651 µM [rising, full curve]	
CC(C)(C)n1cnc(C(N)=O)c1N	-2.71%	0.103 µM [falling, full curve, poor fit]	
CN(C)CCNC(=O)c1ccc2c(c1)NC(=O)c1ccccc1S2	13.9%		
COc1ccccc1CNC1CCN(Cc2ccccc2)CC1	6.08%	5.8 µM [rising, single point]	
O=C(COc1ccc(S(=O)(=O)NC2CCCCC2)cc1)Nc1ccc2c(c1)OCCO2	31%	6.51 µM [rising, partial curve]	32.6 µM [rising, single point]
Cc1cc(=O)oc2c1c(C)nn2-c1nn[nH]n1	-23.8%	5.8 µM [falling, full curve]	
CC(=O)c1ccc(S(=O)(=O)Nc2ccccc2C(=O)NC2CC2)cc1	0.746%	6.51 µM [rising, single point]	5.17 µM [rising, single point]
COc1ccc2cc(C(=O)N/N=C/c3cc(OC)c(OC)c(OC)c3)[nH]c2c1		29.1 µM [rising, single point]	

Structure (SMILES)	cell number change	AC50 [1]	AC50 [2]
O=C(COc1ccccc1)Nc1nnc(S(=O)(=O)N2CCCCCC2)s1	21.9%	29.1 µM [falling, single point]	
CCCCSc1nc(NCc2ccco2)c2c3c(sc2n1)COC(C)(C)C3	-12.8%	18.4 µM [rising, single point]	
CCOc1ccc2c(c1)c1nnc(SCC(=O)N3CCCCC3C)nc1n2C (centres undefined)	-19.4%		
CCOC(=O)N1CCN(C(=O)c2nn(C)c3c2CSc2ccccc2-3)CC1	-7.2%	25.9 µM [falling, single point]	
CCCCc1cc2c(c(NC(=O)CC)n1)c(=O)oc1ccccc12	-0.583%		
CCC(NC(=O)Cc1c(C)c2c(cc(C)c3c(C)c(C)oc32)oc1=O)C(=O)O (centres undefined)		29.1 µM [rising, single point]	
Cc1ccsc1C(=O)NNC(=O)c1ccc(NS(=O)(=O)c2cccs2)cc1	5.62%		
Cn1[nH]c(C(F)(F)F)c(C=Nc2ccc(Cl)cc2)c1=O	-4.9%		
O=C(N/N=C/c1ccc[nH]1)c1c[nH]c2ccccc12	-19.9%	11.6 µM [rising, single point]	
COc1ccc(C2CC(c3cccc(OC)c3OC)n3nnnc3N2)cc1 (centres undefined)	-1.38%		
COc1ccc(/C=C2\SC(=O)N(CC(=O)NCCC(C)C)C2=O)cc1OC	-34.5%	0.366 µM [falling, full curve]	14.6 µM [falling, partial curve]
CN(C)c1ccc(C=NC(CO)C(O)c2ccc([N+](=O)[O-])cc2)cc1 (centres undefined)	25.4%	20.6 µM [rising, single point]	
Cc1ccnc(NC(c2ccccc2O)c2oc(CO)cc(=O)c2O)c1 (centres undefined)	21.3%	32.6 µM [rising, single point]	
O=C(c1cc([N+](=O)[O-])cc([N+](=O)[O-])c1)N1CCN(C(=O)c2ccco2)CC1	-16.4%	0.146 µM [falling, full curve, poor fit]	0.00461 µM [falling, full curve, poor fit]
NC(=O)C1=C[C@@H](c2coc3ccccc3c2=O)C[C@@H](OCCCCO)O1	35%		0.103 µM [rising, full curve, poor fit]
CCOc1cc(/C=N/NC(=O)CN2CCCCC2)ccc1OCc1ccccc1	-9.57%	0.082 µM [falling, full curve, poor fit]	
Cc1csc(SCC(=O)Nc2nnc(C)s2)n1	10.9%	6.51 µM [rising, single point]	
CC[C@H](C)[C@H](NC(N)=O)C(=O)Nc1ccc(OC)c(Cl)c1	35.2%		0.517 µM [rising, full curve, poor fit]
CCCN(CCC)C(=O)Cc1coc2ccc3ccccc3c12	38.1%		8.2 µM [rising, partial curve, poor fit]
Cc1cc(NC(=O)CSCc2nc(-c3cccc(F)c3)oc2C)no1	19.7%	2.06 µM [falling, partial curve]	3.66 µM [falling, partial curve]

Some of these compounds in order of number of heavy atoms, ascending.
Structure (SMILES)	cell number change	AC50 [1]	AC50 [2]
O=C(N/N=C/c1ccc[nH]1)c1c[nH]c2ccccc12	-19.9%	11.6 µM [rising, single point]	
NC(=O)C1=C[C@@H](c2coc3ccccc3c2=O)C[C@@H](OCCCCO)O1	35%		0.103 µM [rising, full curve, poor fit]
CCOc1cc(/C=N/NC(=O)CN2CCCCC2)ccc1OCc1ccccc1	-9.57%	0.082 µM [falling, full curve, poor fit]	
